Patent US20200270352A1
Where a chain is given by its changes, count along the chain named. These are yes or no findings as the source states them, for the method shown. Binding calls can cover weak binding; strength is not graded here.

B1: humanized antibody hz208F2 VH3/VL3 (hz208F2 H026/L024) (antibody, human IgG1, kappa, V domains shown)
VH: QVQLVQSGAEVKKPGASVKMSCKASGYTFTSYYIYWVKQAPGQGLEWLGWIWPGDGSTKYNEKFQGRVTLTADKSSNTAYMFLSSLRSEDTAVYFCASPMITPNYAMDYWGQGTLVTVSS
VL: DIQMTQSPSSLSASVGDRVTISCRASQDISKYLNWYQQKPGKAPKLLIYYTSRLHSGVPSRFSGRGSGTDYSLTISNLQPEDFATYFCQQGSTLPYTFGGGTKVEIKR
B2: humanized antibody hz208F2 H037/L018 (antibody, human IgG1, kappa, V domains shown)
VH: QVQLVQSGAEVKKPGASVKVSCKASGYTFTSYYMHWVRQAPGQGLEWMGWIWPGDGSTKYAQKFQGRVTMTRDKSSSTVYMELSSLRSEDTAVYFCASPMITPNYAMDYWGQGTLVTVSS
VL: B1 VL with S22T, H55Q, N77S
B3: humanized antibody hz208F2 H047/L018 (antibody, human IgG1, kappa, V domains shown)
VH: B2 VH with M34I, K74T, S77N, F95Y
VL: B1 VL with S22T, H55Q, N77S
B4: humanized antibody hz208F2 H049/L018 (antibody, human IgG1, kappa, V domains shown)
VH: B2 VH with F95Y
VL: B1 VL with S22T, H55Q, N77S
B5: humanized antibody hz208F2 H051/L018 (antibody, human IgG1, kappa, V domains shown)
VH: B2 VH with K74T, S77N
VL: B1 VL with S22T, H55Q, N77S
B6: humanized antibody hz208F2 H052/L018 (antibody, human IgG1, kappa, V domains shown)
VH: B2 VH with K74T, S76T
VL: B1 VL with S22T, H55Q, N77S
B7: humanized antibody hz208F2 H057/L018 (antibody, human IgG1, kappa, V domains shown)
VH: B2 VH with M34I, S76T, S77N, F95Y
VL: B1 VL with S22T, H55Q, N77S
B8: humanized antibody hz208F2 H068/L018 (antibody, human IgG1, kappa, V domains shown)
VH: B2 VH with K74T, S76T, S77N
VL: B1 VL with S22T, H55Q, N77S
B9: humanized antibody hz208F2 H070/L018 (antibody, human IgG1, kappa, V domains shown)
VH: B2 VH with K74T, S76T, F95Y
VL: B1 VL with S22T, H55Q, N77S
B10: humanized antibody hz208F2 H071/L018 (antibody, human IgG1, kappa, V domains shown)
VH: B2 VH with K74T, S76T, S77N, F95Y
VL: B1 VL with S22T, H55Q, N77S
B11: humanized antibody hz208F2 H076/L018 (antibody, human IgG1, kappa, V domains shown)
VH: B2 VH with M34I, K74T, S76T, F95Y
VL: B1 VL with S22T, H55Q, N77S
B12: humanized antibody hz208F2 H077/L018 (antibody, human IgG1, kappa, V domains shown)
VH: B2 VH with M34I, K74T, S76T
VL: B1 VL with S22T, H55Q, N77S
B13: humanized antibody hz208F2 H037/L021 (antibody, human IgG1, kappa, V domains shown)
VH: B2 VH
VL: B1 VL with S22T, Y71F, N77S
B14: humanized antibody hz208F2 H049/L021 (antibody, human IgG1, kappa, V domains shown)
VH: B2 VH with F95Y
VL: B1 VL with S22T, Y71F, N77S
B15: humanized antibody hz208F2 H052/L021 (antibody, human IgG1, kappa, V domains shown)
VH: B2 VH with K74T, S76T
VL: B1 VL with S22T, Y71F, N77S
B16: humanized antibody hz208F2 H076/L021 (antibody, human IgG1, kappa, V domains shown)
VH: B2 VH with M34I, K74T, S76T, F95Y
VL: B1 VL with S22T, Y71F, N77S

target: monkey IGF-1R on COS-7 cells (African green monkey kidney) (monkey (African green monkey)); assay: FACS titration on COS-7

binding, binds:
B1

target: monkey IGF-1R on COS-7 cells (African green monkey kidney) (monkey (African green monkey)); assay: FACS on Cos-7

binding, binds:
B1
B2
B3
B4
B5
B6
B7
B8
B9
B10
B11
B12
B13
B14
B15
B16
